No constants are given. Whether binding was seen depends on the method and setting. Binding seen in cells or lysates may run through a third protein. Some results given as binding are weak or reduced against the parent protein; the word gives no strength.
Target: HPV16 E6 fused with a streptavidin-binding protein (SBP)-tag at the C-terminus (human papillomavirus type 16 (HPV16)) (UniProt P03126)
Test: pull-down

Sequences of proteins named here, by UniProt entry; tags and fusion partners are left off. A change or cut given only in a name is not applied to a line headed by its entry.
UniProt P03126: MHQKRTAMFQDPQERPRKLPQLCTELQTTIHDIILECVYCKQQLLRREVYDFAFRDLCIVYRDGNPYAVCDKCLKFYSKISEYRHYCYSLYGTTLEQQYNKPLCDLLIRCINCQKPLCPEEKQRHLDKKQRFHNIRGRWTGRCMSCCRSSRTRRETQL
UniProt O95831: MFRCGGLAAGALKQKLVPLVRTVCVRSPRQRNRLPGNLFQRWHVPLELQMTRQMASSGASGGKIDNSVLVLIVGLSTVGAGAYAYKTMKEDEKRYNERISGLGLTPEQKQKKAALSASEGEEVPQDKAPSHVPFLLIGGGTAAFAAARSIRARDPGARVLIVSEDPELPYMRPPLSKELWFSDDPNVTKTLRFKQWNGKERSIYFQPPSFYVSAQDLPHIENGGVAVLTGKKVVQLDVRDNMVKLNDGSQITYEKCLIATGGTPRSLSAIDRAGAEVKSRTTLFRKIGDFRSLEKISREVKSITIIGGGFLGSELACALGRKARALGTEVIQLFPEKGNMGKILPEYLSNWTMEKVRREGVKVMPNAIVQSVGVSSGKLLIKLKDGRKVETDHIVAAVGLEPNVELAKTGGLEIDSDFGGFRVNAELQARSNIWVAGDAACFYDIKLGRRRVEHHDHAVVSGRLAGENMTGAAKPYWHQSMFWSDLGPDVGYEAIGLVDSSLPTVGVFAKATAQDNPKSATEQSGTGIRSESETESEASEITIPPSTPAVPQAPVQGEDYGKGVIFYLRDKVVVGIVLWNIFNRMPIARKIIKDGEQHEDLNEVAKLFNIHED

“Apoptotic form of AIF (Δ102AIF), ubiquitin polypeptide-fused, with an HA-tag at the C-terminus (from UniProt O95831 103-613) (domain or fragment)” was tested, and the binding was “binds”.
In the case of “Mature form of AIF (Δ54AIF), ubiquitin polypeptide-fused, with an HA-tag at the C-terminus (from UniProt O95831 55-613) (domain or fragment)”, the binding is reported as “binds”.

From publication PMC7450093
